Source: PubChem BioAssay AID504808 (Drosophila RNAi Screening Center, 2011)
The deposit covers about 21,000 reagents; this is a random part of those that have a named target and a result. Of all reagents, 18 (0.084%) got an active call. 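Raw counts without plate normalisation, one of two replicates; the ratio scores behind the calls were not deposited.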 Reagents against one gene are numbered here. Names joined by + are all predicted targets of the reagent. Not given: the amount of reagent, the time to read-out.

Screen: 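Fly genes required to hold E2F transcription in check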 (primary screen)
System: Drosophila S2 cells
Knock-down reagent: long dsRNA against Drosophila genes
Measurement: 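Dual luciferase plate measurements; E2F-specific signal taken as firefly over Renilla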
Direction: E2F firefly: higher = more E2F reporter activity; Renilla normaliser: higher = more normaliser reporter signal
Rule for the call: 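Called active if the normalised E2F reporter went up by over 50%; the cutoff is arbitrary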

target | dsRNA no. | E2F firefly, rep 1 | Renilla normaliser, rep 1 | activity call
Tep2 | 1 | 1.43e5 | 4570 | inactive
Tep2 | 2 | 1.47e5 | 4782 | inactive
Reepl1 | 1 | 1.37e5 | 6637 | inactive
MCTS1 | 1 | 8514 | 840 | inactive
CG13814 (retired record) | 1 | 1.16e5 | 5431 | inactive
Rpp20 + CG33932 | 1 | 1.28e5 | 6448 | inactive
CG15368 | 1 | 1.21e5 | 5400 | inactive
CG31999 | 1 | 1.19e5 | 5502 | inactive
CG31999 | 2 | 1.11e5 | 5621 | inactive
CG32590 | 1 | 2.49e5 | 6340 | inactive
CG4041 | 1 | 1.05e5 | 5930 | inactive
CG42342 | 1 | 87178 | 2730 | inactive
CG42342 | 2 | 41850 | 3388 | inactive
CG42342 | 3 | 1.17e5 | 5741 | inactive
CG42342 | 4 | 1.19e5 | 5664 | inactive
CG42342 | 5 | 1.13e5 | 5795 | inactive
eas | 1 | 1.47e5 | 6004 | inactive
CG10064 | 1 | 98228 | 4052 | inactive
stau | 1 | 63917 | 3457 | inactive
scra | 1 | 3208 | 195 | inactive
CG15579 | 1 | 1.28e5 | 5555 | inactive
CG6656 | 1 | 73111 | 3509 | inactive
SelT | 1 | 89267 | 4295 | inactive
Lkr | 1 | 86386 | 4000 | inactive
CG6398 | 1 | 1.51e5 | 5549 | inactive
CG10321 | 1 | 54282 | 2750 | inactive
AP-1gamma | 1 | 1.01e5 | 6747 | inactive
CG15824 | 1 | 1.76e5 | 5758 | inactive
CG17108 | 1 | 1.50e5 | 5660 | inactive
Dlip2 | 1 | 1.44e5 | 7832 | inactive
Rab4 + CG42239 | 1 | 1.69e5 | 6588 | inactive
Task7 | 1 | 1.47e5 | 6556 | inactive
CG7457 | 1 | 1.00e5 | 3762 | inactive
CG18294 | 1 | 1.45e5 | 6406 | inactive
CG10887 | 1 | 1.22e5 | 6756 | inactive
CheB42c | 1 | 1.44e5 | 5032 | inactive
M6 | 1 | 1.30e5 | 5605 | inactive
CG11825 | 1 | 1.51e5 | 5044 | inactive
CG10177 | 1 | 96414 | 5756 | inactive
zld | 1 | 1.35e5 | 4457 | inactive
aph-1 | 1 | 85921 | 3593 | inactive
CG16953 | 1 | 62932 | 3938 | inactive
Tsp97E | 1 | 1608 | 960 | inactive
CG17147 | 1 | 1.24e5 | 5400 | inactive
sowi | 1 | 1.26e5 | 6897 | inactive
SLC22A | 1 | 1.33e5 | 6952 | inactive
SLC22A | 2 | 1.32e5 | 6764 | inactive
CG34054 | 1 | 1.25e5 | 5470 | inactive
CG43861 + CG12508 (retired record) | 1 | 1.07e5 | 4474 | inactive
CG10602 | 1 | 78296 | 4206 | inactive
RpL12 | 1 | 80742 | 5371 | inactive
CG43894 | 1 | 81160 | 4938 | inactive
alpha-Est6 | 1 | 77849 | 3032 | inactive
Mgat1 | 1 | 99121 | 4251 | inactive
CG8910 | 1 | 1.34e5 | 5041 | inactive
CG14834 | 1 | 94901 | 3901 | inactive
RhoGAP5A | 1 | 7477 | 724 | inactive
CG6962 | 1 | 62107 | 3947 | inactive
CG7006 | 1 | 71299 | 4191 | inactive
Parp16 | 1 | 1.44e5 | 5007 | inactive
Gp210 | 1 | 1.20e5 | 4878 | inactive
Gp210 | 2 | 97354 | 3710 | inactive
CG31676 | 1 | 1.01e5 | 4532 | inactive
CG13527 | 1 | 98298 | 4230 | inactive
Mrp5 | 1 | 1.53e5 | 8398 | inactive
Mrp5 | 2 | 1.51e5 | 8454 | inactive
CG17266 | 1 | 1.04e5 | 4416 | inactive
CG34011 | 1 | 1.24e5 | 5157 | inactive
EMC7 | 1 | 1.46e5 | 5372 | inactive
CG15239 | 1 | 1.27e5 | 5748 | inactive
CG17824 (retired record) | 1 | 1.44e5 | 7339 | inactive
Fcp3C | 1 | 1.16e5 | 6143 | inactive
Ulp1 | 1 | 1.52e5 | 5322 | inactive
apn | 1 | 1.20e5 | 6441 | inactive
CG7222 | 1 | 3350 | 115 | inactive
CG32023 | 1 | 1.41e5 | 5056 | inactive
grk | 1 | 78029 | 3329 | inactive
Zn72D | 1 | 86235 | 4229 | inactive
CG3652 | 1 | 1.55e5 | 4732 | inactive
eIF3i | 1 | 71491 | 4295 | inactive
CG13510 | 1 | 1.14e5 | 4707 | inactive
glo | 1 | 1.24e5 | 6391 | inactive
Prp8 | 1 | 2031 | 189 | inactive
CG17751 | 1 | 1.45e5 | 8678 | inactive
sov | 1 | 9031 | 768 | inactive
CR11235 | 1 | 1.34e5 | 5640 | inactive
Rfk | 1 | 82826 | 3603 | inactive
CG2972 | 1 | 6478 | 688 | inactive
Nlg4 | 1 | 1.37e5 | 6984 | inactive
Nlg4 | 2 | 1.40e5 | 6864 | inactive
Nlg4 | 3 | 1.47e5 | 7329 | inactive
Nlg4 | 4 | 1.07e5 | 5016 | inactive
CG34266 | 1 | 1.26e5 | 4196 | inactive
Menl-2 + Menl-1 | 1 | 1.57e5 | 5393 | inactive
Menl-2 + Menl-1 | 2 | 1.42e5 | 4914 | inactive
Ser7 | 1 | 7743 | 776 | inactive
mRpL39 | 1 | 1.67e5 | 8359 | inactive
alien | 1 | 85142 | 3651 | inactive
dyw | 1 | 1.18e5 | 6314 | inactive
CanA1 | 1 | 1.31e5 | 7002 | inactive
Pgant6 | 1 | 79937 | 3407 | inactive
CG3328 | 1 | 75490 | 3704 | inactive
CG15143 | 1 | 1.10e5 | 5244 | inactive
DENR | 1 | 1.70e5 | 6187 | inactive
CG17855 | 1 | 1.68e5 | 5987 | inactive
pk | 1 | 1.34e5 | 4934 | inactive
pk | 2 | 1.77e5 | 5559 | inactive

A stretch of the results above:
target | dsRNA no. | E2F firefly, rep 1 | Renilla normaliser, rep 1 | activity call
Tep2 | 1 | 1.43e5 | 4570 | inactive
Tep2 | 2 | 1.47e5 | 4782 | inactive
Reepl1 | 1 | 1.37e5 | 6637 | inactive
MCTS1 | 1 | 8514 | 840 | inactive
CG13814 (retired record) | 1 | 1.16e5 | 5431 | inactive
Rpp20 + CG33932 | 1 | 1.28e5 | 6448 | inactive
CG15368 | 1 | 1.21e5 | 5400 | inactive
